In publication PMC13170675, “A Wnt-induced conformational phospho-switch in DVL3 controls association with Frizzled receptors and Wnt/β-catenin signaling” (Science Advances, 2026):
No constants are given. Whether binding was seen depends on the method and setting.

T1: hDVL3 PDZ domain (amino acids 243 to 351) (human) (UniProt Q92997)
T1 sequence: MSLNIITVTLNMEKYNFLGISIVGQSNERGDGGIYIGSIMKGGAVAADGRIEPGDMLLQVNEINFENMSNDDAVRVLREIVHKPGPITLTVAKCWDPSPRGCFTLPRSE

T2: hDVL3 IDR2 (amino acids 335 to 396), nonphosphorylated (human) (UniProt Q92997)
T2 sequence: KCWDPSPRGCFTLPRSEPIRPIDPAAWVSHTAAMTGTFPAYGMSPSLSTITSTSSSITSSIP

B1: hDVL3 IDR2 (amino acids 335 to 396), nonphosphorylated (domain or fragment, UniProt Q92997 335-396)
chain: KCWDPSPRGCFTLPRSEPIRPIDPAAWVSHTAAMTGTFPAYGMSPSLSTITSTSSSITSSIP
B2: hDVL3 PDZ domain (amino acids 243 to 351) (domain or fragment, UniProt Q92997 243-351)
chain: MSLNIITVTLNMEKYNFLGISIVGQSNERGDGGIYIGSIMKGGAVAADGRIEPGDMLLQVNEINFENMSNDDAVRVLREIVHKPGPITLTVAKCWDPSPRGCFTLPRSE

Key:
[1] = target: T1, hDVL3 PDZ domain (amino acids 243 to 351) (human); assay: NMR titration; 1H-15N HSQC of 50 μM 15N-labelled protein, unlabelled partner added in excess or serially; 50 mM KCl, 50 mM phosphate buffer (pH 6.5), 1 mM dEDTA, 25°C; both purified
[2] = target: T2, hDVL3 IDR2 (amino acids 335 to 396), nonphosphorylated (human); assay: as above

Row | Binder | binding [1] | binding [2]
1 | B1 | no binding | –
2 | B2 | – | no binding
